Measurements reported in the supplement of paper PMC4604168 (melanoma cell lines).
The other results are listed elsewhere or left out. Repeats are few or missing, and single values can be far off.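 Cells were imaged in 1,536-well plates, and nuclei stained with an antibody against cleaved PARP were counted against all DNA-stained nuclei to give the apoptosis fraction. Screening doses were chosen to leave most cells alive, and resting and induced cleaved-PARP levels differ strongly between cell lines.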

test system: UACC62; test: cleaved PARP positive nuclei fraction relative to DMSO control; melanoma cells; higher = more apoptosis; conditions: library dose: low library concentration; 72 h

In order of falling “cleaved PARP positive nuclei fraction” value:
1. Oc1cc(-c2nc(-c3ccccc3)[nH]c2-c2ccncc2)ccc1Cl + O=C(Oc1ccc([N+](=O)[O-])cc1)N1CCC(C(O)(c2ccc3c(c2)OCO3)c2ccc3c(c2)OCO3)CC1 [JZL184] (first compound 0.2 µM, partner dose 1 µM)  258%
2. Oc1cc(-c2nc(-c3ccccc3)[nH]c2-c2ccncc2)ccc1Cl + C/C(O)=C(\C#N)C(=O)Nc1cc(Br)ccc1Br [LFM-A13] (first compound 0.2 µM, partner dose 2 µM)  129%
3. CC1(C)NC(=O)N(c2ccc([N+](=O)[O-])c(C(F)(F)F)c2)C1=O [nilutamide] + C/C(O)=C(\C#N)C(=O)Nc1cc(Br)ccc1Br [LFM-A13] (first compound 1 µM, partner dose 2 µM)  81.9%
4. C[C@]12O[C@H](C[C@]1(O)CO)n1c3ccccc3c3c4c(c5c6ccccc6n2c5c31)CNC4=O [Lestaurtinib] + O=C(Oc1ccc([N+](=O)[O-])cc1)N1CCC(C(O)(c2ccc3c(c2)OCO3)c2ccc3c(c2)OCO3)CC1 [JZL184] (first compound 0.004 µM, partner dose 1 µM)  74.8%
5. C[As](C)SC[C@H](NC(=O)CC[C@H](N)C(=O)O)C(=O)NCC(=O)O [Darinaparsin] + COc1ccc2c(c1)CCC1C2CCC2(C)C(NCCCCCCN3C(=O)C=CC3=O)CCC12 [U73122] (first compound 0.4 µM, partner dose 0.4 µM)  44%
6. CCc1ccc(CCOc2ccc(CC3SC(=O)NC3=O)cc2)nc1 (stereo unspecified) [pioglitazone] + O=C(Oc1ccc([N+](=O)[O-])cc1)N1CCC(C(O)(c2ccc3c(c2)OCO3)c2ccc3c(c2)OCO3)CC1 [JZL184] (first compound 2 µM, partner dose 1 µM)  34.2%
